Measured values reported in article PMC9616950, “A toxin-deformation dependent inhibition mechanism in the T7SS toxin-antitoxin system of Gram-positive bacteria” (Nature Communications, 2022).
No constants are given. Whether binding was seen depends on the method and setting. Some entries that bind do so weakly or less than the wild type.

Protein sequences, listed by entry. Tags and fused reporters are not part of them. Chains listed by the source or under a name are the forms on record and can include a tag or linker. Residues count along the entry.
His-EsaDc-NFL (His-SUMO-tagged EsaD residues 450-503) (Q2G179, residues 450-503): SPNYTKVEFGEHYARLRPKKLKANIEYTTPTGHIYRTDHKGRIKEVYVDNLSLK
CFL (EsaD residues 504-614) (Q2G179, residues 504-614): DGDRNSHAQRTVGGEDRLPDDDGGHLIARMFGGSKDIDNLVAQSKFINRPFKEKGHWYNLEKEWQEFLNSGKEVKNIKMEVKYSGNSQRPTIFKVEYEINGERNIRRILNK

What was measured:
[1] = target: NFL (EsaD residues 450-503) (S. aureus) (UniProt Q2G179); assay: 2D 1H,15N-HSQC NMR; 15N-CFL (0.25 mM) with unlabeled NFL (1.0 mM) and 15N-NFL (1.0 mM) with unlabeled CFL (1.5 mM), compared with 15N-EsaDc (0.4 mM); 200 mM NaCl, 27 mM KCl, 30 mM Na2HPO4, 1.8 mM KH2PO4, pH 6.5, 20 °C; both purified
[2] = target: T1, EsaG (S. aureus) (UniProt Q2G178); assay: SEC; gel filtration of purified proteins and their mixtures; column and buffer not told for these runs; both purified
T1 sequence: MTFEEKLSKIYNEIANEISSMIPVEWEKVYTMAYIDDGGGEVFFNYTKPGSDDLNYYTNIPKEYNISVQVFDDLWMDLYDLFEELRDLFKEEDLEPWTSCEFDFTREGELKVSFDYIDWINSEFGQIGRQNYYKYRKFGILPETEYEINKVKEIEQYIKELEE

[3] = target: His-EsaDc-NFL (His-SUMO-tagged EsaD residues 450-503) (S. aureus) (UniProt Q2G179); assay: pull-down; His-SUMO-tagged protein on Ni-NTA beads with untagged protein (0.16 mM : 0.2 mM); 25 mM Tris-HCl pH 8.0, 1 M NaCl, 24 °C, 30 min; Coomassie-stained SDS-PAGE; both purified

Measured: binding

CFL (EsaD residues 504-614) (from UniProt Q2G179 504-614) (domain or fragment)
binds: [1] | [2] | [3]
